Data: article PMC5942357 (European Journal of Clinical Pharmacology, 2018)
Read-outs that look alike come from different tables or passages of the source.

Assays:
[1] = in vivo
[2] = over the range from 30 to 3000 mcg
[3] = in vivo; remark: listed apart in the source
[4] = 4-week inhalation, all doses tested
αvβ6 integrin = conditions: cited from earlier work

## Cc1cc(C)n(-c2cccc([C@H](CC(=O)O)CN3CC[C@@H](CCc4ccc5c(n4)NCCC5)C3)c2)n1 [GSK3008348]
[1]; human
  Geometric coefficient of variance (CV) for AUC0-inf, inter-individual variability: 19.8-52.5%
  Geometric coefficient of variance (CV) for AUC0-t, inter-individual variability: 20.1-99.0%
  Geometric coefficient of variance (CV) for Cmax, inter-individual variability: 16.6-106%
  Plasma concentrations: Note: all GSK3008348 plasma concentrations were non-quantifiable following administration of 1, 3, and 10 mcg GSK3008348
  Time post-dose at which plasma concentrations were measurable: 0.25 to 4 h
[1]
  Plasma concentrations: not quantifiable
1 mcg, N = 6
  Treatment-related AEs: Any AE: 2 (33) Number (%) of participants
  Treatment-related AEs: Cough: 1 (17) Number (%) of participants
  Treatment-related AEs: Dizziness: 0 Number (%) of participants
  Treatment-related AEs: Headache: 1 (17) Number (%) of participants
  Treatment-related AEs: Lethargy: 0 Number (%) of participants
  Treatment-related AEs: Rhinorrhoea: 0 Number (%) of participants
3 mcg, N = 6
  Treatment-related AEs: Any AE: 0 Number (%) of participants
  Treatment-related AEs: Cough: 0 Number (%) of participants
  Treatment-related AEs: Dizziness: 0 Number (%) of participants
  Treatment-related AEs: Headache: 0 Number (%) of participants
  Treatment-related AEs: Lethargy: 0 Number (%) of participants
  Treatment-related AEs: Rhinorrhoea: 0 Number (%) of participants
10 mcg, N = 6
  Treatment-related AEs: Any AE: 2 (33) Number (%) of participants
  Treatment-related AEs: Cough: 1 (17) Number (%) of participants
  Treatment-related AEs: Dizziness: 1 (17) Number (%) of participants
  Treatment-related AEs: Headache: 0 Number (%) of participants
  Treatment-related AEs: Lethargy: 1 (17) Number (%) of participants
  Treatment-related AEs: Rhinorrhoea: 0 Number (%) of participants
30 mcg, N = 6
  Treatment-related AEs: Any AE: 0 Number (%) of participants
  Treatment-related AEs: Cough: 0 Number (%) of participants
  Treatment-related AEs: Dizziness: 0 Number (%) of participants
  Treatment-related AEs: Headache: 0 Number (%) of participants
  Treatment-related AEs: Lethargy: 0 Number (%) of participants
  Treatment-related AEs: Rhinorrhoea: 0 Number (%) of participants
100 mcg, N = 6
  Treatment-related AEs: Any AE: 1 (17) Number (%) of participants
  Treatment-related AEs: Cough: 1 (17) Number (%) of participants
  Treatment-related AEs: Dizziness: 0 Number (%) of participants
  Treatment-related AEs: Headache: 0 Number (%) of participants
  Treatment-related AEs: Lethargy: 0 Number (%) of participants
  Treatment-related AEs: Rhinorrhoea: 0 Number (%) of participants
300 mcg, N = 6
  Treatment-related AEs: Any AE: 1 (17) Number (%) of participants
  Treatment-related AEs: Cough: 0 Number (%) of participants
  Treatment-related AEs: Dizziness: 0 Number (%) of participants
  Treatment-related AEs: Headache: 0 Number (%) of participants
  Treatment-related AEs: Lethargy: 0 Number (%) of participants
  Treatment-related AEs: Rhinorrhoea: 1 (17) Number (%) of participants
1000 mcg, N = 12
  Treatment-related AEs: Any AE: 0 Number (%) of participants
  Treatment-related AEs: Cough: 0 Number (%) of participants
  Treatment-related AEs: Dizziness: 0 Number (%) of participants
  Treatment-related AEs: Headache: 0 Number (%) of participants
  Treatment-related AEs: Lethargy: 0 Number (%) of participants
  Treatment-related AEs: Rhinorrhoea: 0 Number (%) of participants
1000 or 3000 mcg
  Treatment-related AEs at the highest doses: no treatment-related AEs were reported
3000 mcg, N = 11
  Treatment-related AEs: Any AE: 0 Number (%) of participants
  Treatment-related AEs: Cough: 0 Number (%) of participants
  Treatment-related AEs: Dizziness: 0 Number (%) of participants
  Treatment-related AEs: Headache: 0 Number (%) of participants
  Treatment-related AEs: Lethargy: 0 Number (%) of participants
  Treatment-related AEs: Rhinorrhoea: 0 Number (%) of participants
All dose levels
  12-lead ECG, telemetry and vital sign measurements outside normal ranges: not clinically significant
  Clinical laboratory values: no clinically significant abnormal clinical laboratory values
Single doses up to 3000 mcg, healthy participants
  Tolerability: well tolerated
[2]
  Increase in dose normalised geometric mean Cmax: less than 3 fold
[3]
  Lung retention after absorption from the lung: no evidence of significant lung retention
[4]
  Systemic toxicity: No systemic toxicity
αvβ6 integrin
  Receptor dissociation half-life: ~ 9 h
